The assay can be described thus: qHTS Assay to Find Inhibitors of Chronic Active B-Cell Receptor Signaling. To be noted: ABC-DLBCL IkBa-CBG/CBR reporter, luminescence ratio (green luciferase fused to IkBa over red control in TMD8 lymphoma cells), 4 h. An outline of the steps: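 Concentration-response series (up to 46 uM) were applied to TMD8 dual-reporter cells for 4 h at 37C with doxycycline. Green/red ratio, after filter-overlap correction, defined %Activity; red signal alone was normalised to basal cells and zero luminescence.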

Setting [1] is: measured here: CBR red luminescence, cell number.

Structures are written as SMILES. Some of the results follow. The main result of the screen is listed elsewhere. These columns were measured beside it and carry no call. The list favours compounds with an active or inconclusive main result. The note in brackets gives the kind of curve behind each potency; many fits are weak.

For the molecule `COc1ccc(C(=O)N/N=C/c2cccc3cccnc23)cc1`, under setting [1], the concentration at half-maximal activity (AC50) is 10 µM [falling, partial curve].
On to `Cc1ccc(S(=O)(=O)NNC(=S)Nc2ccc(Cl)cc2)cc1`, for which, under setting [1], the half-maximal activity concentration (AC50) was 3.55 µM [rising, single point].
Same read-out and setting: then `CCCCCCNS(=O)(=O)c1ccc(Cl)s1`, with 0.517 µM [rising, partial curve, poor fit]; and `Nc1nc(CN2CCOCC2)cs1`, with 29.1 µM [rising, single point].
On to `CCCc1cc(-c2nc(-c3ccc(Cl)cc3)cs2)ccn1`, for which the AC50 under setting [1] is 2.82 µM [rising, partial curve, poor fit].
Consider `CCCOc1ccc(C(=O)c2nc3c(n2O)CCCC3)cc1`, for which the AC50 under setting [1] is 0.891 µM [rising, full curve, poor fit].
Still for that read-out and setting: then `Cc1cccc(N=C2NN=C(c3ccccc3F)CS2)c1C`, with 35.5 µM [falling, single point]; and `Cc1cccnc1NC(=O)CCc1c[nH]c2ccccc12`, with 7.08 µM [falling, full curve, poor fit]; and `CCNS(=O)(=O)c1ccc(NC(=O)Nc2ccccc2OC)cc1`, with 2.51 µM [falling, full curve, poor fit].
As to `Cc1nc2nc(SCC(N)=O)[nH]c2cc1Br`, the AC50 under setting [1] was 0.00651 µM [falling, full curve, poor fit].
Same read-out and setting: the same measure for `O=c1c2c(nc3nc(SCc4ccccc4)[nH]n13)CCC2`: 0.891 µM [falling, full curve]; for `CCC(=O)c1c[nH]c(C(=O)NCc2ccccc2OC)c1`: 10 µM [falling, partial curve, poor fit].
As for `CCOC(=O)c1ccc(NC(=O)c2nc[nH]c2C(=O)NC)cc1`, the half-maximal activity concentration (AC50) under setting [1] is 3.55 µM [rising, full curve, poor fit].
Still for that read-out and setting: then `Cc1cc(C)cc(N(CC(=O)NC2CCCCC2)C(=O)CCCC(=O)Nc2ccccn2)c1`, with 11.2 µM [falling, single point]; and `Cc1ccsc1C(=O)NN=C1CCCCCC1`, with 2 µM [falling, full curve]; and `Cc1ccc(C2=NN3C(C2)c2ccccc2OC32C(=O)Nc3ccccc32)cc1` (stereo unspecified), with 3.98 µM [falling, partial curve, poor fit].
Same read-out and setting: then `COc1ccc(Cl)cc1NC(=O)COc1ccc2c(c1)OCO2`, with 0.92 µM [rising, partial curve, poor fit].
On to `COCCOc1nc2c(c(=O)n(C)c(=O)n2C)n1CCc1ccccc1`, for which the AC50 under setting [1] is 1 µM [falling, partial curve, poor fit].
With `COc1ccc(C(=O)Nn2c(SCC(=O)c3ccc(Cl)cc3)nc3ccccc3c2=O)cc1`, the AC50 under setting [1] was 2.24 µM [falling, full curve].
Take `Cc1ccc(Cl)cc1N1CCN(C(=O)c2ccc3c(c2)CCN3S(C)(=O)=O)CC1`: under setting [1], the AC50 was 35.5 µM [falling, single point].
With `O=C(O)Cc1ccc(NC(=O)c2ccc3c(c2)C(=O)N(Cc2ccco2)C3=O)cc1`, the half-maximal activity concentration (AC50) under setting [1] is 12.6 µM [falling, single point].
As for `CC(C)(C)c1cc(CCC(=O)N2CCNCC2)c(C(C)(C)C)cc1O`, the AC50 under setting [1] was 0.411 µM [falling, full curve, poor fit].
Regarding `COc1ccc(NC(=O)CSCC(=O)Nc2cc(Cl)ccc2N2CCCC2)cc1`, under setting [1], the concentration at half-maximal activity (AC50) was 35.5 µM [falling, single point].
Regarding `CC1c2[nH]c3ccccc3c2CCN1C(=O)Nc1ccccc1` (stereo unspecified), the AC50 under setting [1] is 20.6 µM [falling, single point].
Consider `Cc1onc(-c2ccccc2)c1C(=O)N/N=C/c1cc(Br)c(Br)o1`, for which the AC50 under setting [1] was 20.6 µM [falling, single point].
On the same count and under the same terms, the same measure for `O=C(NCc1ccccc1)c1ccc(CN(c2ccccn2)S(=O)(=O)c2ccccc2)cc1`: 0.501 µM [falling, full curve]; for `Cc1onc(-c2ccc(Cl)cc2Cl)c1-c1csc(N/N=C/c2ccccc2)n1`: 0.708 µM [falling, full curve, poor fit].
Still for that read-out and setting: the same measure for `CCCNC(=O)c1ccc2c(c1)ncn2-c1ccc(C)cc1C`: 7.94 µM [rising, partial curve, poor fit].
Same read-out and setting: then `COC(=O)c1cc2c(=O)n3ccccc3nc2n(C)c1=N`, with 35.5 µM [falling, single point]; and `CCOC(=O)c1c(NC(=O)CS(=O)(=O)c2ccc(C)cc2)sc2c1CCCCC2`, with 22.4 µM [rising, single point].
As for `COc1ccc(N2C(N)=C(C#N)C(c3ccsc3)C3=C2CCCC3=O)c(OC)c1` (stereo unspecified), the AC50 under setting [1] is 9.2 µM [rising, partial curve, poor fit].
Same read-out and setting: the same measure for `O=C(CNC(=O)c1ccccc1)NCC(=O)OCc1ccccc1Cl`: 15.8 µM [rising, single point]; for `Cn1c(NNC(=O)CCC2CCCCC2)cc(=O)n(C)c1=O`: 29.1 µM [falling, single point].
For the molecule `COc1ccc(-c2cc(C)no2)cc1S(=O)(=O)N1CCCN(Cc2ccccc2Cl)C1`, the AC50 under setting [1] is 35.5 µM [falling, single point].
The same measure, in the same setting: the same measure for `COc1ccc(NC(=O)CSc2nc3c(c(=O)n2-c2ccc(C)cc2)SCC3)c(OC)c1`: 0.13 µM [rising, full curve, poor fit]; for `CC1CCN(c2nc3ccc(C(=O)N4CCN(Cc5ccccc5)CC4)cc3s2)CC1`: 29.1 µM [falling, single point].
The same measure, in the same setting: the same measure for `CCN(CC(=O)Nc1ccc2c(c1)OCCO2)S(=O)(=O)c1cccs1`: 0.58 µM [falling, full curve, poor fit].
Still for that read-out and setting: the same measure for `CCN(CC)S(=O)(=O)c1ccc(S(=O)(=O)N2CCN(C(=O)c3ccco3)CC2)cc1`: 16.4 µM [rising, single point]; for `S=C(NCc1ccco1)Nc1ccc(Oc2ccccc2)cc1`: 2 µM [rising, partial curve, poor fit]; for `COc1ccc(C(=O)Nc2ccc(C(=O)N3CCCC3)cc2)cc1[N+](=O)[O-]`: 4.47 µM [falling, full curve, poor fit].
As to `COc1ccc(/C=C/C(=O)Nc2c(C(=O)O)[nH]c3ccccc23)cc1OC`, under setting [1], the AC50 was 14.1 µM [falling, single point].
Same read-out and setting: then `COc1cccc(Nc2nc(-c3cccnc3)cs2)c1`, with 35.5 µM [falling, single point].
On to `C#CCSc1nc(C)cc(C(=O)OCC)c1C#N`, for which the AC50 under setting [1] was 10 µM [rising, partial curve, poor fit].
For the molecule `Cc1ccc(Cn2nnc3c(=O)n(CC(=O)OCc4ccccc4)cnc32)cc1`, the half-maximal activity concentration (AC50) under setting [1] was 23.1 µM [falling, single point].
On the same count and under the same terms, the same measure for `N#Cc1c(NC(=O)C2CC(Cl)=CCC2C(=O)O)sc2c1CCCC2` (stereo unspecified): 25.1 µM [falling, single point]; for `COc1cccc(/C=N\NC(=O)c2ccc(Cn3cc(Br)c([N+](=O)[O-])n3)o2)c1O`: 2.82 µM [falling, full curve].
Take `N#CC1=C(N)N(c2ccc(Oc3ccccc3)cc2)C(=O)C1`: the AC50 under setting [1] was 0.146 µM [rising, full curve, poor fit].
The same measure, in the same setting: then `CCSc1cc(N2CCCC2)nc(-c2ccc(C)cc2)n1`, with 23.1 µM [rising, single point]; and `COc1cc(OC)cc(C(=O)NC(=S)Nc2ccc(NC(=O)c3ccco3)cc2)c1`, with 4.11 µM [rising, partial curve]; and `CCCCn1c(O)c(N=NC(=O)c2ccncc2)c2cc(Br)ccc21`, with 8.2 µM [rising, partial curve].
Same read-out and setting: then `CCN(C(=O)COC(=O)c1cnccn1)c1cccc2ccccc12`, with 9.2 µM [rising, partial curve, poor fit]; and `CN1CCN(C(=O)C2=C[C@@H](c3coc4ccccc4c3=O)C[C@@H](OCc3ccc(CO)cc3)O2)CC1`, with 6.31 µM [rising, full curve, poor fit].
As to `NC(=O)C1(N2CCCCC2)CCN(C(=O)NC23CC4CC(CC(C4)C2)C3)CC1`, the concentration at half-maximal activity (AC50) under setting [1] was 0.651 µM [rising, partial curve, poor fit].
As for `C/C(=N\N1CCN(c2ccccc2)CC1)c1ccncc1`, the concentration at half-maximal activity (AC50) under setting [1] is 35.5 µM [rising, single point].
The same measure, in the same setting: the same measure for `COc1cc(/C=C(/C#N)c2nc3ccccc3[nH]2)ccc1OC(=O)c1ccco1`: 7.31 µM [falling, partial curve]; for `COc1cc(OC)c(C(=O)OCC(=O)NCC2CCCCC2)cc1OC`: 3.26 µM [rising, full curve].
On the same count and under the same terms, the same measure for `CS(=O)(=O)NNC(=O)c1cc2cc3ccccc3nc2s1`: 6.31 µM [falling, partial curve, poor fit]; for `COc1ccccc1-c1ccc(SCc2cccc(F)c2)nn1`: 22.4 µM [falling, partial curve].
For the molecule `Cc1cc(=O)[nH]c(N/N=C/c2sccc2C)n1`, the AC50 under setting [1] is 5.17 µM [falling, partial curve].
On the same count and under the same terms, then `O=C(O)c1cccc2c1C(=O)c1ccc(-c3ccc(F)cc3OCc3ccccc3)cc1S2(=O)=O`, with 29.1 µM [falling, single point].
Consider `COc1ccc(NC(=O)Cc2csc(NC(=O)Nc3ccccc3OC)n2)c(OC)c1`, for which the half-maximal activity concentration (AC50) is 7.31 µM [falling, partial curve, poor fit] under setting [1] and 9.2 µM [rising, partial curve, poor fit] (measured here: IkBa-CBG green luminescence).
On to `O=C(O)c1cccc(CSc2nnc(-c3cccnc3)o2)c1`, for which the concentration at half-maximal activity (AC50) under setting [1] was 14.1 µM [falling, partial curve, poor fit].
The same measure, in the same setting: the same measure for `Nn1cnnc1N/N=C/c1ccc(Cl)c([N+](=O)[O-])c1`: 35.5 µM [falling, single point]; for `O=C(CCNc1ccccc1)c1ccc2c(c1)OCO2`: 31.6 µM [falling, single point]; for `COc1cc(/C=C2\SC(c3ccc(C)cc3)=NC2=O)cc(OC)c1OC`: 29.1 µM [falling, single point].

In general, AC50 refers to the midpoint of the concentration-response curve, whichever way the signal moves.
